## Primary screen of a compound library

By UniProt entry, the sequences of proteins in these tests, tags left out. Residues count along the entry.
UniProt I6X8D2, whole entry: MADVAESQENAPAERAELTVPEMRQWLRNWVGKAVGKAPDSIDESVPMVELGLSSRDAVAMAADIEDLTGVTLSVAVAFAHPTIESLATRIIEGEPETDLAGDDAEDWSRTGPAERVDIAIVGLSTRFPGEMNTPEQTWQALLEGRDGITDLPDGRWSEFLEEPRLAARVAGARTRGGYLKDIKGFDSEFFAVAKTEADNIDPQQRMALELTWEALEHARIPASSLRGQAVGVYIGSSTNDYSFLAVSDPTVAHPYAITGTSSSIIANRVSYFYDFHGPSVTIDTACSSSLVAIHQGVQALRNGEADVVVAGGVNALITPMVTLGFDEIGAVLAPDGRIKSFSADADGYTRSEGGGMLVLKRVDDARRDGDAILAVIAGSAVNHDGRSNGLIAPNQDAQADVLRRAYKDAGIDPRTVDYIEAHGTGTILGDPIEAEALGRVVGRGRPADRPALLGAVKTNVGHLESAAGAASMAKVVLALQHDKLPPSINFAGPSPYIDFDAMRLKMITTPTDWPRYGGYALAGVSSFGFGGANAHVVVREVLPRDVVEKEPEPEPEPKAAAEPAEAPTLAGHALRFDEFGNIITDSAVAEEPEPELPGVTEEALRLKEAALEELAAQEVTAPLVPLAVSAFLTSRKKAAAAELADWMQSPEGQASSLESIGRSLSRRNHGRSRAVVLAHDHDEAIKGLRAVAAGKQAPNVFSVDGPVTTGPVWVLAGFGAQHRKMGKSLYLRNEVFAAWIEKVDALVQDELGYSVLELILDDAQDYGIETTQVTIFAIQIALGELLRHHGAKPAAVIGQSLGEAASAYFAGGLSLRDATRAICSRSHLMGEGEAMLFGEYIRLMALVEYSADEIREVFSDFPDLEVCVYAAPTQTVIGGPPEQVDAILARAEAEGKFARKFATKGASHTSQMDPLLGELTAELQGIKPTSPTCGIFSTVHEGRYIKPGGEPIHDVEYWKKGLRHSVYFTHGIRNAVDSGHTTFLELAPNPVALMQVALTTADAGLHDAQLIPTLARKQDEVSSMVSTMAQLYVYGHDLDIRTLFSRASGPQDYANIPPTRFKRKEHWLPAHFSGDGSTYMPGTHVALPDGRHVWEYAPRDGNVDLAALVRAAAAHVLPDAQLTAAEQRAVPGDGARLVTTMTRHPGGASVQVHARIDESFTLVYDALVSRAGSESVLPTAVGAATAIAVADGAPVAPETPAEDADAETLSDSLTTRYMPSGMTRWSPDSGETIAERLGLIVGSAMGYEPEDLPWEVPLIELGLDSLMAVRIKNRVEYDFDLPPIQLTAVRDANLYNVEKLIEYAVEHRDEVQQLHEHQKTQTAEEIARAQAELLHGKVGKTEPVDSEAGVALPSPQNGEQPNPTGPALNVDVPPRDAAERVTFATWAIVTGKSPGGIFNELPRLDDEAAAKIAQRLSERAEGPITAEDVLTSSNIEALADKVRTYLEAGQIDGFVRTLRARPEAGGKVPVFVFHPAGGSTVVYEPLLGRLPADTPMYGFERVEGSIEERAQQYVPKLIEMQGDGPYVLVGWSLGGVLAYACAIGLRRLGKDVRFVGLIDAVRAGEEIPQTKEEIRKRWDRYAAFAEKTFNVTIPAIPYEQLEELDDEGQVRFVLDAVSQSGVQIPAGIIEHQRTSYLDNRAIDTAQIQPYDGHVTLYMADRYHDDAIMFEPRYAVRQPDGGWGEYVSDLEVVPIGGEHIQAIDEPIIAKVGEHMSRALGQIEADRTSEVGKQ
UniProt P9WNZ1, whole entry: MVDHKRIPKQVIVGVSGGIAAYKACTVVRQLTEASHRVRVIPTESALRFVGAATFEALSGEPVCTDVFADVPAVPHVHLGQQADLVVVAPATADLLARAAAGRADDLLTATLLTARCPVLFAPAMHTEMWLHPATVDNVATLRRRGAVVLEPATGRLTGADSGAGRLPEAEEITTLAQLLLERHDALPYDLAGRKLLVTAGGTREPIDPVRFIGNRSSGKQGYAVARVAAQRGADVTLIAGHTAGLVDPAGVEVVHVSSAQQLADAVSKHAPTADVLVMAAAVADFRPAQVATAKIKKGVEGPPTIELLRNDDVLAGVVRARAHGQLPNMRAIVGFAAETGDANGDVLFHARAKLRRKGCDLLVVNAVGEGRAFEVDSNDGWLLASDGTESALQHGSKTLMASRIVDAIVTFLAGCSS
UniProt P9WFT3, whole entry: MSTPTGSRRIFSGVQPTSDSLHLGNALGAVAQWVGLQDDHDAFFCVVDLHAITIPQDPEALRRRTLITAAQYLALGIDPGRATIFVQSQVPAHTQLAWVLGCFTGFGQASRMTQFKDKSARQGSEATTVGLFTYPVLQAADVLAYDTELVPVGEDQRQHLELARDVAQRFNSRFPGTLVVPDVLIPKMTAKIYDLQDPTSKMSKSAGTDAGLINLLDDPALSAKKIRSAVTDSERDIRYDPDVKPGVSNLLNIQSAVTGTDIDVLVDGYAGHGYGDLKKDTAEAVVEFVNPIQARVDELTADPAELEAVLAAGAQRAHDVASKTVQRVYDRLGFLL
UniProt A4I591, 1-473: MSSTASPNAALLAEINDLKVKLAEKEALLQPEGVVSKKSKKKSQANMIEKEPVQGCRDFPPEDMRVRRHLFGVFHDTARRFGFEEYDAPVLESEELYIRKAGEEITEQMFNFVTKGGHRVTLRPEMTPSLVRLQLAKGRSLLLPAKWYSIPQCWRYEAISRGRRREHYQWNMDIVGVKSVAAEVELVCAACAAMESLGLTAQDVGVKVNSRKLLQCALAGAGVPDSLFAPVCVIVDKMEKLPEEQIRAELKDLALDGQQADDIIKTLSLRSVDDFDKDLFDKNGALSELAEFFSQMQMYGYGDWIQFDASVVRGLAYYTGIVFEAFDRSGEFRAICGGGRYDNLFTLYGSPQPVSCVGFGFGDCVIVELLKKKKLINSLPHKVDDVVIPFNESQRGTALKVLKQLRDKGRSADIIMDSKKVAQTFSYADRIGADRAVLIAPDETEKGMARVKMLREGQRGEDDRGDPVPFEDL
UniProt Q4DA54, 1-478: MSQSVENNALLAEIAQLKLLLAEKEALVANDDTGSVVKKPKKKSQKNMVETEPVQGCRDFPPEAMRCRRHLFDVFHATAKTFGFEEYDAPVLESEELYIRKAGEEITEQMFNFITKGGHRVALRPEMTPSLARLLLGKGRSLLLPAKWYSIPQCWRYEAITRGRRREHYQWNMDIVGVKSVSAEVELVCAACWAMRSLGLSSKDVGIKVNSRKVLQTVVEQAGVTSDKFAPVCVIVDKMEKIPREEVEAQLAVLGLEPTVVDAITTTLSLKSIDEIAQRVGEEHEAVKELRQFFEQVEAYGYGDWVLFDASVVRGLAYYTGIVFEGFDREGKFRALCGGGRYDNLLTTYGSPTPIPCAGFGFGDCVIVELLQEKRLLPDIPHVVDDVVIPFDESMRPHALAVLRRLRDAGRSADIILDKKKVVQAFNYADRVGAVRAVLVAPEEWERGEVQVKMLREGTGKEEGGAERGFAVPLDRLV

Pks13 thioesterase: 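Polyketide synthase Pks13, Mycobacterium tuberculosis (UniProt I6X8D2). Enzyme assay of the thioesterase domain of polyketide synthase 13; the read-out is not stated. Compounds at 30 µM. The record gives no direction; the compounds picked for IC50 retests had high values, so higher reads as stronger inhibition. About 67,000 compounds were tested under these conditions; 0.46% (about 300) showed 50% or more at least once.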
Toxoplasma: 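Assay of Toxoplasma gondii numbers, read through their beta-galactosidase reporter with a colour substrate. Tested at 10 µM. The record gives no direction; the compounds picked for IC50 retests had high values, so higher reads as fewer parasites. About 67,000 compounds were tested under these conditions; 0.38% (about 260) showed 50% or more at least once.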
CoaBC: 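Coenzyme A biosynthesis protein CoaBC, Mycobacterium tuberculosis (UniProt P9WNZ1). Enzyme assay of CoaBC with a phosphate dye (Biomol Green) read at 650 nm. Compounds at 30 µM. Higher reads as stronger inhibition, judged from the few compounds that gave an IC50. Most strong results did not repeat in a second test. Of about 67,000 compounds tested this way, about 40 (0.06%) reached 50% or more in at least one test.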
MtTrpRS: 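Enzyme assay of tryptophanyl-tRNA synthetase; the read-out is not stated. Target: Tryptophan-tRNA ligase, Mycobacterium tuberculosis (UniProt P9WFT3). Tested at 10 µM. Direction is not recorded; retested compounds ran higher, which suggests that high means inhibition. Size under these conditions: about 65,000 compounds, about 64 of them at 50% or above in at least one test.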
LiHisRS: 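Histidine-tRNA ligase, Leishmania infantum (UniProt A4I591). Enzyme assay of histidyl-tRNA synthetase; the read-out is not stated. Tested at 30 µM. Higher reads as stronger inhibition (inferred: compounds with an IC50 in retests scored well above the rest). The assay is labelled LdHisRS but filed under L. infantum. Size under these conditions: about 69,000 compounds, about 410 of them at 50% or above in at least one test.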
TcHisRS: 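Histidine-tRNA ligase, Trypanosoma cruzi CL Brener (UniProt Q4DA54). Enzyme assay of histidyl-tRNA synthetase; the read-out is not stated. Compounds at 30 µM. The record gives no direction; compounds that gave an IC50 in retests scored well above the rest, so higher reads as stronger inhibition. About 69,000 compounds were tested under these conditions; 0.045% (about 31) showed 50% or more at least once.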

Results are given as percent effect.
How 0% and 100% were set is not recorded. Most values in the screen are low, and negative values occur.
The compounds are a random part of those screened.
A dash means the value is not listed here; it may have been measured.

compound	Pks13 thioesterase	Toxoplasma	CoaBC	MtTrpRS	LiHisRS	TcHisRS
CNC(C)Cc1ccccc1Sc1ccc(O)cc1.Cl (stereo not given)	-	23.94	-	-	-	-
Cn1cc(CCNC(=O)N2CCCC(Cc3nccn3C)C2)cn1 (stereo not given)	-3.385	14.31	4.061	2.905	12.94	5.83
N#Cc1cn(C2CC2)c(=O)n(CC(O)c2ccccc2C(F)(F)F)c1=O (stereo not given)	-11.55	-5.899	5.882	2.288	12.84	3.529
COCCNC(=O)C1CN(Cc2csc(C)n2)Cc2ccnn2C1.O=C(O)C(F)(F)F (stereo not given)	-	13.15	-	-	-	-
O=C(O)C(F)(F)F.[H][C@@]12CCN(CC(=O)NC)C[C@]1([H])CN(C(=O)c1cccn1C)C2	-	4.01	-	-	-	-
CCc1nc(C(=O)N2CCN(C)c3ccccc32)c[nH]1	-31.63	-12.2	0.8872	1.613	16.46	5.603
CCCn1nc2c(cc1=O)CN(Cc1nc(-c3ccco3)no1)CC2	7.813	10.78	2.046	10.61	5.505	5.294
CC(C)(C)c1nc(CN(Cc2cccs2)C2CCS(=O)(=O)C2)cs1 (stereo not given)	-8.579	-4.082	11.69	-3.511	15.79	0.8403
CN(C)Cc1cnc(C2CCN(C(=O)c3ccccc3F)C2)[nH]1 (stereo not given)	5.795	-	-6.165	-6.86	9.859	6.818
CC(C)CC(=O)N1CCN(C(=O)NC(C)C)CC2(CC(=O)N(C)C2)C1 (stereo not given)	-3.085	-9.3	5.764	1.66	20.51	0
O=C(c1cccc2c1OCCO2)N1CCCC(n2cccn2)C1 (stereo not given)	-12.57	-26.7	11.06	0.2366	8.772	5.444
CC(C)c1ccc(-c2nnn(CCNS(C)(=O)=O)n2)cc1	-13.55	17.45	1.935	-0.4112	7.619	-0.8264
Cn1cccc1C(=O)N1CCC(c2nccn2Cc2ccncc2)CC1	-24.86	-4.623	6.634	0.3623	12	-4.523
CCn1ccnc1CN1CCCC(CO)(Cc2cccc(Cl)c2)C1 (stereo not given)	-20.66	4.838	-37.44	-2.012	22.64	1.695
Clc1cccc2c1CCN(Cc1nc(CC3CC3)no1)C2	-12.36	-1.556	0.6173	-2.314	6.452	7.853
Cl.NC(CNS(=O)(=O)Cc1cccc2cccnc12)c1ccccc1 (stereo not given)	-	7.065	-	-	-	-
COc1ccc(C)cc1S(=O)(=O)NCC(c1cccn1C)N(C)C (stereo not given)	-17.4	-1.095	-5.757	-2.495	15.38	4.959
CN(Cc1ccc2c(c1)OCCO2)Cc1nc2c(cnn2C)c(=O)[nH]1	-24.81	-11.09	3.52	1.002	0.8772	0.578
CCc1cc(N(C)Cc2nonc2C)nc(N(C)C)n1	-32.85	8.329	-1.463	2.547	21.67	7.792
[H][C@]12CN(C(=O)C3CCC3)C[C@@]1([H])C(=O)N(c1ccccc1)C2	-	7.359	-	-	-	-
O=C(NCc1ccccc1)NCC(O)c1cccc(F)c1 (stereo not given)	-6.431	-12.61	-1.366	-1.467	14.04	4.871
[H][C@@]12CN(C(=O)N(C)C)C[C@]1([H])C(=O)N(C)C21CCN(C(=O)CC(C)C)CC1	-	0.4757	-	-	-	-
CCOCCCC(=O)NCc1ccnc(N2CCN(C)CC2)c1	21.51	3.78	-2.215	8.801	-9.091	1.478
c1cncc(OC[C@]23COC[C@H]2CN(Cc2ccsc2)C3)c1	22.76	-	4.738	3.213	17.28	6.748
COCCN(Cc1cccnc1)S(=O)(=O)c1cccc(F)c1F	-4.714	19.53	-37.19	-1.955	13.39	6.667
COc1ccc(CN2C[C@@H]3COC[C@@H](CC(=O)N4CCCC4)[C@@H]3C2)cc1	2.785	-	4.762	1.245	17.95	9.756
Cn1cccc1CN1CCC2(CC1)CC(Oc1cccnc1)C2	-33.89	-	-	1.187	18.97	2.532
Cn1ncc2c1CCCC2NCc1ccc(Br)s1 (stereo not given)	-14.31	-	10.15	1.546	11.57	-4.202
O=C(O)C(F)(F)F.[H][C@@]12COC[C@H](C(=O)N3CCCCO3)[C@]1([H])CN(Cc1c(C)noc1C)C2	-	2.829	-	-	-	-
CSc1ccc2cc(CN(C)CCO)c(=O)[nH]c2c1	67.01	-3.209	5.128	-3.64	29.06	10.27
O=C(CCc1ccccc1)C1CCCN(C(=O)c2ncc(F)cc2F)C1 (stereo not given)	-16.97	-2.846	-10.45	0.784	23.08	8.264
O=C(NCCCN1CCc2ccccc2C1)c1ccccc1Cl	-12.06	23.04	1.305	-2.443	15.52	3.39
COc1ccc(OC2CCN(C(=O)c3ccc(C)[nH]c3=O)CC2)cc1	-2.084	3.349	2.155	-5.21	17.86	1.775
O=C(Cc1ccc(F)cc1)N1CCn2cc(Cn3cccn3)nc2C1.O=C(O)C(F)(F)F	-	-1.022	-	-	-	-
COc1c(C2CCCN2C(=O)c2sc(C)nc2C)c(C)nn1C (stereo not given)	-31.87	-10.42	-0.129	9.737	6.957	-4.598
CCc1csc(CNC2CCN(Cc3ccccc3)C2)n1 (stereo not given)	-34.77	-	3.075	-2.626	17.74	-1.149
Cc1csc(N2CCCN(C(=O)C3(C#N)CCCCC3)CC2)n1	-9.523	-16.94	1.862	4.403	0.8	0.3802
COC(=O)CNC(=O)CC1COc2ccc(C(=O)N(C)C)cc2N1C (stereo not given)	-35.85	6.078	0.1972	-2.862	12.12	3.175
COc1ccc(CN(C)[C@@H]2COC[C@H]2c2ccc(F)cc2)c(OC)c1.O=C(O)CC(O)(CC(=O)O)C(=O)O	-	-22.26	-	-	-	-
O=C(c1ccoc1)N1CCCn2nnc(COCC3CC3)c2C1	-0.9457	2.327	0.8653	-2.654	5	4.082
CN(CC(=O)NCCc1ccccn1)C(=O)c1cccs1	-4.194	2.843	5.395	1.53	10.84	11.44
O=C(O)C(F)(F)F.[H][C@]12CCN(S(=O)(=O)c3ccccc3F)C[C@@]1([H])OCCN(C)C2	-	-13.78	-	-	-	-
CNc1cc2c(nn1)CCN(C(=O)c1coc(Br)c1)C2	-17.83	-0.4955	6.527	11.79	52.21	8.455
[H][C@@]12CNCC[C@]1(O)CCN(c1ncccc1Cl)C2	-	4.76	-	-	-	-
O=C(O)C(F)(F)F.[H][C@@]12COC[C@]1(C(=O)NCc1cccs1)CN(c1ncccn1)C2	-	-5.851	-	-	-	-
COCCN1CCN(S(=O)(=O)c2ccccc2)Cc2cccnc21.O=C(O)C(F)(F)F	-	9.696	-	-	-	-
CC(C)N1CCCn2c(nc(CNC(=O)c3nccn3C)cc2=O)C1	-34.54	-	-5.833	-2.609	17.95	6.952
Cn1cc(C2CCCN2CCCn2c(=O)oc3ccccc32)cn1 (stereo not given)	-19.16	2.999	-13.39	-2.374	10.42	6.077
O=C(O)C(F)(F)F.[H][C@]12CCC[C@@H](CN(C)CCOC)[C@@]1([H])CN(c1ncccn1)C2	-	-3.842	-	-	-	-
Cc1ccc(S(=O)(=O)N[C@H](CO)C(C)C)cc1N(C)C	-15.74	-3.349	0	-5.333	53.01	7.182
CCN(CCc1ccccc1)Cn1nc(C)c2c(C)onc2c1=O	-13.67	10.4	1.779	1.33	23.81	-0.7519
Cc1cc2c(cc1C)C(NC1CC1)CCCO2 (stereo not given)	-35.96	6.282	9.636	0.0748	-6.897	1.571
O=C(CCc1nc(C2CC2)no1)c1ccccc1	1.137	-2.566	2.926	2.821	17.07	7.212
Cc1ccc(C(=O)N2C[C@@H]3CCN(c4cccnc4)C[C@@H]3C2)cn1	-17.35	-	2.03	-3.868	-2.941	1.97

For reference, 3 entries once more:

compound,Pks13 thioesterase,Toxoplasma,CoaBC,MtTrpRS,LiHisRS,TcHisRS
Cl.NC(CNS(=O)(=O)Cc1cccc2cccnc12)c1ccccc1 (stereo not given),-,7.065,-,-,-,-
CCc1cc(N(C)Cc2nonc2C)nc(N(C)C)n1,-32.85,8.329,-1.463,2.547,21.67,7.792
COc1ccc(OC2CCN(C(=O)c3ccc(C)[nH]c3=O)CC2)cc1,-2.084,3.349,2.155,-5.21,17.86,1.775

Data taken from ChEMBL document CHEMBL3988442, “University of Dundee, Small-Polar-MMV Screening Library” (2021).